Test results taken from patent US20190322748A1.

Molecular target: biotinylated cynoPD1-ECD-Biotin (cynomolgus)
Assay: ELISA, cynomolgus cross-reactivity

- binding: binds
B1: chimeric PD1-0103 (antibody, human IgG1, V domains shown)
VH: EVILVESGGGLVKPGGSLKLSCAASGFSFSSYTMSWVRQTPEKRLDWVATISGGGRDIYYPDSVKGRFTISRDNAKNTLYLEMSSLMSEDTALYYCVLLTGRVYFALDSWGQGTSVTVSS
VL: KIVLTQSPASLPVSLGQRATISCRASESVDTSDNSFIHWYQQRPGQSPKLLIYRSSTLESGVPARFSGSGSRTDFTLTIDPVEADDVATYYCQQNYDVPWTFGGGTKLEIK

No constants are given. Whether binding was seen depends on the method and setting. A result given as binding can be weak or reduced; the word gives no strength.
